Source: article PMC8813937

Sequences of proteins named here, by UniProt entry; tags and fusion partners are left off. A change or cut given only in a name is not applied to a line headed by its entry.
UniProt P49821: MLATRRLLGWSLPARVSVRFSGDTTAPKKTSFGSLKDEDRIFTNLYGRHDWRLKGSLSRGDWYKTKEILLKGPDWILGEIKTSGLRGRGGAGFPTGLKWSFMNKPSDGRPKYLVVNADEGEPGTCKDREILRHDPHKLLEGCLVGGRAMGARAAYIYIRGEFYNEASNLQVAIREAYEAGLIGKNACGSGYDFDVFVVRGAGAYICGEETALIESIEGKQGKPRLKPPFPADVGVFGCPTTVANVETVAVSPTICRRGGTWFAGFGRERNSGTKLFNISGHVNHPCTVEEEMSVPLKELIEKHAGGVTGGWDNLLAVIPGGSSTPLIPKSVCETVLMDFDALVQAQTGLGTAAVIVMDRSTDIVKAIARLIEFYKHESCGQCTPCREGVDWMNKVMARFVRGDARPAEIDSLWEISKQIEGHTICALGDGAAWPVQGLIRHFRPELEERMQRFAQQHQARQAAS

Biological target: T1, CYTL1, bait of the pull-down coupled with mass spectrometry (UniProt Q9NRR1)
T1 sequence: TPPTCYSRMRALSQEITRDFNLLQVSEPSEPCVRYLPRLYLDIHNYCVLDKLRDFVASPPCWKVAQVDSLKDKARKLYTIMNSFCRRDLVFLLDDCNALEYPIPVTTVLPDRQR
Test: affinity purification with mass spectrometry; pull-down experiments coupled with mass spectrometry; bait construct and cells not stated

binding: binds
Substance: NDUFV1, hit of the CYTL1 pull-down coupled with mass spectrometry (from UniProt P49821)

No constants are given. Whether binding was seen depends on the method and setting. Binding seen in cells or lysates may run through a third protein. Here binding means that the protein was enriched with, or labelled near, the bait; the list need not be complete.
